Taken from: PubChem BioAssay AID1508597 (Cure First, 2020)
Aim: 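Knock-downs altering ovarian cancer cell survival with or without PARP inhibitor rucaparib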 (primary screen). System: human ovarian carcinoma lines grown from tumours: OCI-P5x (papillary serous) and OCI-C5x (clear cell). Knock-down reagent: siRNA pool against human genes, 1.25 pmol siRNA per well. Timing: 72 h or 96 h, depending on the cell culture. Challenge: rucaparib 20 µM (about IC30) or vehicle, present until read-out. Measurement: 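ATP luminescence measured at 72 or 96 h according to the culture, then normalised and expressed as percent viability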. Reading the numbers: viability, normalised: higher = more viable cells remaining. Active means: 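a well counts as a hit if its normalised viability is under 80 percent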. Meaning of the calls: active = viability under 80%; inactive = viability 80% or more.
Shown is one part, drawn at random, of about 2,100 deposited reagents. 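Calls flag viability under 80% in either arm, not effects specific to rucaparib; the reference for percent is not stated.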 Not given: the 100% reference.

The first 2 entries, to show the layout:
gene knocked down	rucaparib or vehicle	cell line	technical replicate	viability, normalised (%)	Outcome
CTNNB1	Rucaparib	OCI-C5x (clear cell)	1	55.5	active
CTNNB1	Rucaparib	OCI-C5x (clear cell)	2	59.4	active

The listing, from the start:
gene knocked down	rucaparib or vehicle	cell line	technical replicate	viability, normalised (%)	Outcome
CTNNB1	Rucaparib	OCI-C5x (clear cell)	1	55.5	active
CTNNB1	Rucaparib	OCI-C5x (clear cell)	2	59.4	active
CTNNB1	Rucaparib	OCI-C5x (clear cell)	3	44.5	active
CTNNB1	Rucaparib	OCI-P5x (serous)	1	70.5	active
CTNNB1	Rucaparib	OCI-P5x (serous)	2	84.6	inactive
CTNNB1	Rucaparib	OCI-P5x (serous)	3	72.5	active
CTNNB1	Vehicle	OCI-C5x (clear cell)	1	52.3	active
CTNNB1	Vehicle	OCI-C5x (clear cell)	2	43.6	active
CTNNB1	Vehicle	OCI-C5x (clear cell)	3	43.6	active
CTNNB1	Vehicle	OCI-P5x (serous)	1	49.1	active
CTNNB1	Vehicle	OCI-P5x (serous)	2	75.8	active
CTNNB1	Vehicle	OCI-P5x (serous)	3	66.7	active
TWF2	Rucaparib	OCI-C5x (clear cell)	1	26.8	active
TWF2	Rucaparib	OCI-C5x (clear cell)	2	37.5	active
TWF2	Rucaparib	OCI-C5x (clear cell)	3	38.6	active
TWF2	Rucaparib	OCI-P5x (serous)	1	96.7	inactive
TWF2	Rucaparib	OCI-P5x (serous)	2	98.9	inactive
TWF2	Rucaparib	OCI-P5x (serous)	3	72.7	active
TWF2	Vehicle	OCI-C5x (clear cell)	1	55.6	active
TWF2	Vehicle	OCI-C5x (clear cell)	2	31.8	active
TWF2	Vehicle	OCI-C5x (clear cell)	3	50.4	active
TWF2	Vehicle	OCI-P5x (serous)	1	81.9	inactive
TWF2	Vehicle	OCI-P5x (serous)	2	67.8	active
TWF2	Vehicle	OCI-P5x (serous)	3	77.2	active
CDH1	Rucaparib	OCI-C5x (clear cell)	1	62.7	active
CDH1	Rucaparib	OCI-C5x (clear cell)	2	60.1	active
CDH1	Rucaparib	OCI-C5x (clear cell)	3	42.2	active
CDH1	Rucaparib	OCI-P5x (serous)	1	69.3	active
CDH1	Rucaparib	OCI-P5x (serous)	2	60.6	active
CDH1	Rucaparib	OCI-P5x (serous)	3	60.9	active
CDH1	Vehicle	OCI-C5x (clear cell)	1	28	active
CDH1	Vehicle	OCI-C5x (clear cell)	2	41.8	active
CDH1	Vehicle	OCI-C5x (clear cell)	3	29.2	active
CDH1	Vehicle	OCI-P5x (serous)	1	59.6	active
CDH1	Vehicle	OCI-P5x (serous)	2	62.8	active
CDH1	Vehicle	OCI-P5x (serous)	3	56.1	active
POLR1C	Rucaparib	OCI-C5x (clear cell)	1	76.6	active
POLR1C	Rucaparib	OCI-C5x (clear cell)	2	63.6	active
POLR1C	Rucaparib	OCI-C5x (clear cell)	3	66.8	active
POLR1C	Rucaparib	OCI-P5x (serous)	1	125	inactive
POLR1C	Rucaparib	OCI-P5x (serous)	2	73	active
POLR1C	Rucaparib	OCI-P5x (serous)	3	115	inactive
POLR1C	Vehicle	OCI-C5x (clear cell)	1	69.8	active
POLR1C	Vehicle	OCI-C5x (clear cell)	2	62.7	active
POLR1C	Vehicle	OCI-C5x (clear cell)	3	61.6	active
POLR1C	Vehicle	OCI-P5x (serous)	1	136	inactive
POLR1C	Vehicle	OCI-P5x (serous)	2	120	inactive
POLR1C	Vehicle	OCI-P5x (serous)	3	99.6	inactive
